Results: the supplement of paper PMC10849652
The list shows a part of the results.

Protein sequences, listed by entry. Tags and fused reporters are not part of them. Lines headed by an entry give the natural chain unless they say otherwise; changes in a name come on top.
UniProt O76064: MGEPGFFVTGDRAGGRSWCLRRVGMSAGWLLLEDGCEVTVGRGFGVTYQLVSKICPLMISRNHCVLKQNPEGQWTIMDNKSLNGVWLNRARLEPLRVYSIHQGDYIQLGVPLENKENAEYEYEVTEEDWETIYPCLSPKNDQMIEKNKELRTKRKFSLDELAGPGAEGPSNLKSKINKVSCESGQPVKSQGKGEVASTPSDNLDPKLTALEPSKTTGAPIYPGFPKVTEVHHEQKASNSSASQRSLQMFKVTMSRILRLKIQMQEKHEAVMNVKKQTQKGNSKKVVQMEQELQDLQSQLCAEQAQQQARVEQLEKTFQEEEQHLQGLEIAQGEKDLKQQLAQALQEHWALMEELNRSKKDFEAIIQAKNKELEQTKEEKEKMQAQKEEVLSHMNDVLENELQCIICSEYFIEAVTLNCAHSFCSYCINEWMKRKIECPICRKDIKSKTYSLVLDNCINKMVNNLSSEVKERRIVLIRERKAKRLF
UniProt Q86XS8: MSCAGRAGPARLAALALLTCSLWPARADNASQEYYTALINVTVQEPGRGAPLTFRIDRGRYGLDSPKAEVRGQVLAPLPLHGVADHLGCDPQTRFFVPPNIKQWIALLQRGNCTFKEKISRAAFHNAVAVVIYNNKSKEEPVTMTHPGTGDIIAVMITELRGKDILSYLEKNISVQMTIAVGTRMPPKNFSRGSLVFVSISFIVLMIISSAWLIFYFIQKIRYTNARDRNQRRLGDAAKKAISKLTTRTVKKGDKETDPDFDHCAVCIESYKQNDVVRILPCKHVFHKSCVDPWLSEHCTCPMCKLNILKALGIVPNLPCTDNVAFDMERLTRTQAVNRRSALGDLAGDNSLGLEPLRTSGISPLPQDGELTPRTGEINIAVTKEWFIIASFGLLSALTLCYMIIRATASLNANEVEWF
UniProt P17081: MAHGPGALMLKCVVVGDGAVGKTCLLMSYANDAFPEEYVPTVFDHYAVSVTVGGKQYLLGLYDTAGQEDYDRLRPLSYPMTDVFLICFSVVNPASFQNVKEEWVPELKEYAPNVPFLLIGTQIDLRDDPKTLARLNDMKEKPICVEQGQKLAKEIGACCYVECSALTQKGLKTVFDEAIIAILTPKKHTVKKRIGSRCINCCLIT
UniProt Q9Y225: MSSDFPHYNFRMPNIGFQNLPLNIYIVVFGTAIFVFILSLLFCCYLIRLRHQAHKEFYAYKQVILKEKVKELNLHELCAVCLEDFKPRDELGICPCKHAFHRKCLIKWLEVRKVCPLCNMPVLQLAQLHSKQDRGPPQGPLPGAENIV
UniProt Q6ZNA4: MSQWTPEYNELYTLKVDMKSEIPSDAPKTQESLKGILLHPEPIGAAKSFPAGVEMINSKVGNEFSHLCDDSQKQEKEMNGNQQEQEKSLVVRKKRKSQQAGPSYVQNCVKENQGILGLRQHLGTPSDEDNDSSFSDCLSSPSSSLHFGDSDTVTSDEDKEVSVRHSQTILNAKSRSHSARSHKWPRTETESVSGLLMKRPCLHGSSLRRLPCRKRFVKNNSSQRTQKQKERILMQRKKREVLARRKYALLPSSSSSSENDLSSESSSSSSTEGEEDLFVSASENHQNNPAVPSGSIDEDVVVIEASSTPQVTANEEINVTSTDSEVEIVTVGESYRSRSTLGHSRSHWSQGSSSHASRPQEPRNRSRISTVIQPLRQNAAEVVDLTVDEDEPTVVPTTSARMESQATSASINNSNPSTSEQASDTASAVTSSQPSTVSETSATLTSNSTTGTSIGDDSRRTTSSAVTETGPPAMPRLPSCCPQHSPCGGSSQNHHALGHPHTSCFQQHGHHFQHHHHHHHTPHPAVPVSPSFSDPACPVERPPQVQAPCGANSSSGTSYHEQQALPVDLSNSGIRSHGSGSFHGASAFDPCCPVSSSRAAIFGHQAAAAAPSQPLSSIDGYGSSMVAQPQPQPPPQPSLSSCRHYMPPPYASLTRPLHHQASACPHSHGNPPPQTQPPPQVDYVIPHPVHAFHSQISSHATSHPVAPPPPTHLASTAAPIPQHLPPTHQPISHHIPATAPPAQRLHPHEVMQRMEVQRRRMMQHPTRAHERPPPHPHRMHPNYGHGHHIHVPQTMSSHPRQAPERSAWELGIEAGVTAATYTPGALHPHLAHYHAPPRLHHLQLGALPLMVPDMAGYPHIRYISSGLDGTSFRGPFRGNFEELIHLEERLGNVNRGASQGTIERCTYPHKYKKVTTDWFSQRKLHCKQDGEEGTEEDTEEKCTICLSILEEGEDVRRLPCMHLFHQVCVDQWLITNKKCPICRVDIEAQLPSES
UniProt Q9ULI2: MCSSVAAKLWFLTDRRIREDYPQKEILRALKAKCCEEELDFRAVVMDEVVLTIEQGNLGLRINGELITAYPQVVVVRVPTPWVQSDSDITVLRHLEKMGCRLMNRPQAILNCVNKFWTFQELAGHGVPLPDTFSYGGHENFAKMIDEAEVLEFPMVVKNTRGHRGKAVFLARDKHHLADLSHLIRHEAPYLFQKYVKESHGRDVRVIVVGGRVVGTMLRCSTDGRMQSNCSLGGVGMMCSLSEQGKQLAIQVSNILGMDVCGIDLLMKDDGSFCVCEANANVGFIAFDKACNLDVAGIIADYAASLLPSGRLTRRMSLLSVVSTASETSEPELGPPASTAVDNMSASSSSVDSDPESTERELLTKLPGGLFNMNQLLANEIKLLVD
UniProt Q13129: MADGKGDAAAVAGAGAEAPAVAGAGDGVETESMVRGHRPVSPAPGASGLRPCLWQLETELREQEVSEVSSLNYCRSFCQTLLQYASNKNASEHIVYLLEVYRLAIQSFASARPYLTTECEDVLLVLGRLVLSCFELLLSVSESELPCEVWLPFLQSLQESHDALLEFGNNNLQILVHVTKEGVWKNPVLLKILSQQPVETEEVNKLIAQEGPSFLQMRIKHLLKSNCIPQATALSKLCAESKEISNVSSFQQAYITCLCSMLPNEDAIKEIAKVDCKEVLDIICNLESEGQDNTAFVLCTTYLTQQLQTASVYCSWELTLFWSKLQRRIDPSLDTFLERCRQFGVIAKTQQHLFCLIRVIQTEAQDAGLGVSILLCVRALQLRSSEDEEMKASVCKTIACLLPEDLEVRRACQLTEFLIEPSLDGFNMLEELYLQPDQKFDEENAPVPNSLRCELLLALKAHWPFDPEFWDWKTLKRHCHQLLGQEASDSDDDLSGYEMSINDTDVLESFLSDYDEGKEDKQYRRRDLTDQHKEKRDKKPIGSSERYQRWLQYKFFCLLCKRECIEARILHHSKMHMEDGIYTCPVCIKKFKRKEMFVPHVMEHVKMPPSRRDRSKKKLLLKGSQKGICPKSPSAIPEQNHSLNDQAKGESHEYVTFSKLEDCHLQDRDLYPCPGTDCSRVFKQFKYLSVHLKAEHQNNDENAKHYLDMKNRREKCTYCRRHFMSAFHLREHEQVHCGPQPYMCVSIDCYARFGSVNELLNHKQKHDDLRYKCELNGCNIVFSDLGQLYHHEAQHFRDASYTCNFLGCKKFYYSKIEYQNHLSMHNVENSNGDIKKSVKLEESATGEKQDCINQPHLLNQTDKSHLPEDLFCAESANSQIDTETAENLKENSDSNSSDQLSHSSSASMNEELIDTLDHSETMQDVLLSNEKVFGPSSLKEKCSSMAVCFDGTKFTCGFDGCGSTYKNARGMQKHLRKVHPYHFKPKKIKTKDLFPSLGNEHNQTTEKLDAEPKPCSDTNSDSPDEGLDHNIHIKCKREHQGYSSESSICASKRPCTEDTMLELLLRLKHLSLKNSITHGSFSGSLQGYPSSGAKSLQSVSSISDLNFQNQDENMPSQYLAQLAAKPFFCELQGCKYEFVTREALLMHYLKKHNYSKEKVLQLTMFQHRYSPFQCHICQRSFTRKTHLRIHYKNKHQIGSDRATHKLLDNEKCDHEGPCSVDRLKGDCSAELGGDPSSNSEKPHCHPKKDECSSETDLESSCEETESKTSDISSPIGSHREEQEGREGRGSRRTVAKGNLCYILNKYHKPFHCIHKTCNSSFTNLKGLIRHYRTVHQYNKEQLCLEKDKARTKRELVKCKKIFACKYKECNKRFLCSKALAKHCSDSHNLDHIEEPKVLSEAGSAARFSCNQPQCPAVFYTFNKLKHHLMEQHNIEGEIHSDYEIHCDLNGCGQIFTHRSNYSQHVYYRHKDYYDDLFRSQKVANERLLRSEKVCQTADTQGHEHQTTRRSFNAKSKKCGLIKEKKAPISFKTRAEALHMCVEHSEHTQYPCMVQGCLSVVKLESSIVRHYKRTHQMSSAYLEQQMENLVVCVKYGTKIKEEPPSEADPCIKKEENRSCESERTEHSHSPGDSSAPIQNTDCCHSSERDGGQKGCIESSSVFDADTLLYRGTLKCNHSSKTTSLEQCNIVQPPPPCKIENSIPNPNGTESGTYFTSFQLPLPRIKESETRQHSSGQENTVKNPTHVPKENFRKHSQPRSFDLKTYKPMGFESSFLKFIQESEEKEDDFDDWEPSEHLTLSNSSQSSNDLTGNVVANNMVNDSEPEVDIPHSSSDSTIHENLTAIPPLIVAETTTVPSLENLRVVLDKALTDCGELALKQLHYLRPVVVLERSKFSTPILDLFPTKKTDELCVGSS
UniProt O43567: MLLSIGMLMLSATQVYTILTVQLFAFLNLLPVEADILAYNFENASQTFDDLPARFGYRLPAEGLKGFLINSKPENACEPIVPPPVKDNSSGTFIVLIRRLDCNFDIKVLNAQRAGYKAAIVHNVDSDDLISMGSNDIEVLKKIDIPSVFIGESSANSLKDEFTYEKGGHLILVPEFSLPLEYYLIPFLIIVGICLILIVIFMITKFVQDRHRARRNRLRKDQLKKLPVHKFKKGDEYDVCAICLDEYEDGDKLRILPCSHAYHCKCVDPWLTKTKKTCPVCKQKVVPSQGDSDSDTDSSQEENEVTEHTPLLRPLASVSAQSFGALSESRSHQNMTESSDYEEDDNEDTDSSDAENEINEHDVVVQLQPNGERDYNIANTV
UniProt Q8TA86: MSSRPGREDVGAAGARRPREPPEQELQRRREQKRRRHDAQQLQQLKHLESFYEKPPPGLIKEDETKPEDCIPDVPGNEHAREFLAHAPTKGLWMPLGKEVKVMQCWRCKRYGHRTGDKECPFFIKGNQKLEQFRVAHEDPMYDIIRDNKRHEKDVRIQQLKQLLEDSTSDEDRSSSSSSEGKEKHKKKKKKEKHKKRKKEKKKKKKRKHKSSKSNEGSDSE
UniProt Q8N5U6: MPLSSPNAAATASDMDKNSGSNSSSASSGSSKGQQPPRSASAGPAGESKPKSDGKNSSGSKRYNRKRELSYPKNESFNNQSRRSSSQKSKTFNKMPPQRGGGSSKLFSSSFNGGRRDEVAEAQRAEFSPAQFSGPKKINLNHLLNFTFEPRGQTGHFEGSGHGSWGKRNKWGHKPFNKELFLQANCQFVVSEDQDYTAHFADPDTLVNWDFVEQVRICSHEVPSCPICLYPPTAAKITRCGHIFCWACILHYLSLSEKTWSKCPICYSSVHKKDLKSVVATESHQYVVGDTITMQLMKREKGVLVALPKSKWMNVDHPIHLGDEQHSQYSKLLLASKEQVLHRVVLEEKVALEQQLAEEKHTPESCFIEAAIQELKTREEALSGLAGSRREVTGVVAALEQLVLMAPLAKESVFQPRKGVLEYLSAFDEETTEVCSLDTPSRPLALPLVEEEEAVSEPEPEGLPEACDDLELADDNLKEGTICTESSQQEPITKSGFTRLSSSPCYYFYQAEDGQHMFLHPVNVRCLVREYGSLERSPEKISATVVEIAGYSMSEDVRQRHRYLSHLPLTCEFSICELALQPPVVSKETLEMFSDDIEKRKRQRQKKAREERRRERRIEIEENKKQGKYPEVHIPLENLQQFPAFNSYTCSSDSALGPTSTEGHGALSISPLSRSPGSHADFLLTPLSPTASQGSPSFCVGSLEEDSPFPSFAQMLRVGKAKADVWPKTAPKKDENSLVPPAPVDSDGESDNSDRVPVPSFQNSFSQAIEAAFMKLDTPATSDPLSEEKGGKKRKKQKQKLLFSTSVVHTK
UniProt Q9NVW2: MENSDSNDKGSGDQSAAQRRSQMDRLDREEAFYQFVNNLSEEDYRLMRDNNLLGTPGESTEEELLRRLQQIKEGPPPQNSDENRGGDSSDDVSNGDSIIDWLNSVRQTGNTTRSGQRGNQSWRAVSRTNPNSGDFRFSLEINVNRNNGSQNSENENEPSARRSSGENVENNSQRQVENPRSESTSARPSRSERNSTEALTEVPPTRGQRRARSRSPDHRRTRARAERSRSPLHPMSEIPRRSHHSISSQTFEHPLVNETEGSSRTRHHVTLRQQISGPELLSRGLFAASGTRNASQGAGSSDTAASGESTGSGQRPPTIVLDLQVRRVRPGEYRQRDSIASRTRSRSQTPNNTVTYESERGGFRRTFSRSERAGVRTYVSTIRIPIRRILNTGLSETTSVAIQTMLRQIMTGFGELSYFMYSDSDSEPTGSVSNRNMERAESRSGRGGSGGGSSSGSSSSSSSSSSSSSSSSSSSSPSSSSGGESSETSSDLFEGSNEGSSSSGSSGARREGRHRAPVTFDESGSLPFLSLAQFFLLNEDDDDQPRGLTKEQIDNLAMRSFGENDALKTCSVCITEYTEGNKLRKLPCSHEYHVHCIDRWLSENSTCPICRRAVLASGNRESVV

How the values were obtained:
Test in all cases: log2 fold change, soluble protein after heating vs DMSO (PISA); higher = thermal stabilisation; K562 lysate, 10 uM; active = over 0.2 and 3.5 SD of the protein, either way, in both replicates (recomputed)
erlotinib = compound: C#Cc1cccc(Nc2ncnc3cc(OCCOC)c(OCCOC)cc23)c1 [erlotinib]
Procedure, shortened: (§1)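 Dounce homogenisation of K562 pellets in PBS pH 7.4 with 1 mM MgCl2 produced a crude extract, used at 1 mg/mL protein. Exposure to 10 μM compound lasted 30 min, and aliquots were then heated for 3 min across 48°C-58°C, pooled and brought to 0.5% NP-40 at 4°C. The supernatant after 21,000xg for 90 min was quantified by TMTpro 16plex LC-MS/MS with channel sums equalised. Duplicate values are given as log-two fold change in thermal stability relative to solvent controls.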

[1] = compound: C1=CC(=CC=C1C2=NC3=C(N2)C=C(C=C3)C(=O)N)OC4=CC=C(C=C4)Cl
Procedure, shortened: as §1

[2] = compound: C1=CC2=NC=CN=C2C=C1/C=C/3\C(=O)NC(=O)S3
Procedure, shortened: as §1

[3] = compound: C1=CC=C(C=C1)C2=NC(=C(N2)C3=CC=NC=C3)C4=CC(=C(C=C4)Cl)O
Procedure, shortened: as §1

[4] = compound: C1CCN(C1)C(=O)NC2=CC=CC(=C2)NC3=NC=C(C(=N3)NCCC4=CN=CN4)Br
Procedure, shortened: as §1

[5] = compound: C1CN(CCC1(CC2=CC=C(C=C2)Cl)N)C3=NC=NC4=C3C=CN4
Procedure, shortened: as §1

IRAK-1-4 Inhibitor I = compound: C1COCCN1CCN2C3=CC=CC=C3N=C2NC(=O)C4=CC(=CC=C4)[N+](=O)[O-] [IRAK-1-4 Inhibitor I]
Procedure, shortened: as §1

ibrutinib = compound: C=CC(=O)N1CCC[C@@H](n2nc(-c3ccc(Oc4ccccc4)cc3)c3c(N)ncnc32)C1 [ibrutinib]
Procedure, shortened: as §1

ralimetinib = compound: CC(C)(C)Cn1c(N)nc2ccc(-c3[nH]c(C(C)(C)C)nc3-c3ccc(F)cc3)nc21 [ralimetinib]
Procedure, shortened: as §1

[6] = compound: CC(C)(O)CC(=O)NCCn1ccc2ncnc(Nc3ccc(Oc4cccc(C(F)(F)F)c4)c(Cl)c3)c21
Procedure, shortened: as §1

[7] = compound: CC(C)C1=C2N=C(C=C(N2N=C1)NCC3=CC=CC=C3)NCCCCCCN
Procedure, shortened: as §1

[8] = compound: CC1=C(C(CC(=O)N1)C2=CC=C(C=C2)C(F)(F)F)C(=O)NC3=C(C=C4C(=C3)C=NN4)F
Procedure, shortened: as §1

[9] = compound: CC1=C(C2=C(C=C1)C(=O)C3=CC=CC=C3N2CCCN)C
Procedure, shortened: as §1

[10] = compound: CC1=C(C=C(C=C1)NC(=O)C2=CC(=CC=C2)C(C)(C)C#N)NC3=CC4=C(C=C3)N=CN(C4=O)C
Procedure, shortened: as §1

[11] = compound: CC1=C(C=C(C=C1)NC(=O)C2=CC(=CC=C2)N(C)C)NC(=O)C3=CC=C(C=C3)O
Procedure, shortened: as §1

[12] = compound: CC(=O)c1cnc2ccc(-c3cc(Cl)c(O)c(Cl)c3)nc2c1N[C@H]1CC[C@H](CN(C)C)CC1
Procedure, shortened: as §1

[13] = compound: CC1=CC=C(C=C1)SC2=C3C=C(SC3=CN=C2)C(=O)N
Procedure, shortened: as §1

[14] = compound: C/C(=N\NC(=O)C1=CC(=CC=C1)S(=O)(=O)N2CCOCC2)/C3=C(C=CC(=C3)Cl)O
Procedure, shortened: as §1

[15] = compound: C1=CC2=C(C=CC(=C2)/C=C\3/C(=O)NC(=NCC4=CC=CS4)S3)N=C1
Procedure, shortened: as §1

[16] = compound: C1=CC=C2C(=C1)C3=NNC4=CC=CC(=C43)C2=O
Procedure, shortened: as §1

Measured: log2 fold change

RNF8 (UniProt O76064)
inactive: erlotinib 0.153 | [1] 0.042 | [2] 0.211 | [3] 0.141 | [4] 0.091 | [5] -0.205 | IRAK-1-4 Inhibitor I -0.044 | ibrutinib 0.158 | ralimetinib -0.036 | [6] 0.043 | [7] -0.014 | [8] 0.01 | [9] -0.076 | [10] -0.005 | [11] -0.011

RNF167 (UniProt Q9H6Y7)
inactive: [2] -0.002 | ibrutinib 0.033 | [12] -0.011 | [9] -0.071 | [10] -0.051 | [13] 0.112

RNF130 (UniProt Q86XS8)
inactive: [14] -0.039 | [15] 0.097 | [2] -0.036 | [16] 0.016 | ibrutinib 0.014 | [9] -0.185 | [10] 0.225

RPL32 (UniProt D3YTI8)
inactive: erlotinib -0.023 | [1] 0.127 | [12] 0.036 | [7] 0.002 | [9] -0.003 | [13] -0.133

RHOQ (UniProt P17081)
inactive: [14] -0.165 | [15] -0.115 | [16] 0.212 | [4] -0.131 | [5] -0.01

RPL22L1 (UniProt Q6P5R6)
inactive: [2] 0.028 | [3] 0.239 | [4] -0.593 | [5] -0.688 | IRAK-1-4 Inhibitor I 0.179 | ibrutinib -0.086 | ralimetinib -0.396 | [6] -0.334 | [9] -1.16 | [11] -0.199

RNF24 isoform 2 (UniProt Q9Y225)
inactive: erlotinib -0.146 | [1] -0.053 | [2] 0.083 | ibrutinib -0.051 | [7] 0.33 | [8] -0.026 | [10] 0.092

RNF111 isoform 3 (UniProt Q6ZNA4)
inactive: [10] -0.091

RNF121 (UniProt Q9H920)
inactive: erlotinib -0.048 | [1] -0.065 | [2] 0.034 | [3] 0.061 | IRAK-1-4 Inhibitor I -0.049 | ibrutinib 0.014 | [12] -0.123 | ralimetinib -0.112 | [6] 0.056 | [7] -0.057 | [8] 0.057 | [9] 0.128 | [10] 0.05 | [11] -0.073 | [13] -0.064

RNF17 (UniProt Q9BXT8)
inactive: erlotinib -0.055 | [1] 0.008 | [2] 0.553 | [3] 0.013 | [4] -0.025 | [5] 0.033 | IRAK-1-4 Inhibitor I 0.055 | ibrutinib -0.098 | [12] 0.035 | ralimetinib -0.044 | [6] -0.254 | [7] -0.023 | [9] 0.077 | [10] -0.196 | [11] -0.044 | [13] -0.068

RIMKLB (UniProt Q9ULI2)
inactive: [3] 0.026 | IRAK-1-4 Inhibitor I -0.024 | ralimetinib 0.221 | [6] 0.368 | [11] 0.01

RNPC3 (UniProt Q96LT9)
inactive: erlotinib 0.004 | [1] -0.059 | [3] 0.011 | IRAK-1-4 Inhibitor I 0.076 | [12] 0.017 | ralimetinib 0.02 | [6] -0.029 | [7] -0.122 | [8] -0.027 | [9] -0.015 | [10] -0.028 | [11] 0.054 | [13] -0.003

2 entries picked at random from the list so far:
RNPC3 (UniProt Q96LT9)
inactive: erlotinib 0.004 | [1] -0.059 | [3] 0.011 | IRAK-1-4 Inhibitor I 0.076 | [12] 0.017 | ralimetinib 0.02 | [6] -0.029 | [7] -0.122 | [8] -0.027 | [9] -0.015 | [10] -0.028 | [11] 0.054 | [13] -0.003

RNF17 (UniProt Q9BXT8)
inactive: erlotinib -0.055 | [1] 0.008 | [2] 0.553 | [3] 0.013 | [4] -0.025 | [5] 0.033 | IRAK-1-4 Inhibitor I 0.055 | ibrutinib -0.098 | [12] 0.035 | ralimetinib -0.044 | [6] -0.254 | [7] -0.023 | [9] 0.077 | [10] -0.196 | [11] -0.044 | [13] -0.068

Next records follow:

RLF (UniProt Q13129)
inactive: [12] 0.018 | [8] -0.046 | [9] 0.055 | [10] 0.087 | [13] 0

RNF5 (UniProt Q99942)
inactive: erlotinib -0.023 | [1] -0.14 | [2] 0.008 | [3] -0.016 | [4] 0.108 | [5] -0.084 | IRAK-1-4 Inhibitor I -0.047 | ibrutinib 0.037 | ralimetinib 0.065 | [6] 0.047 | [7] -0.013 | [8] -0.004 | [9] 0.005 | [10] 0.073 | [11] 0.006

RNASEH2B, A0A1B0GUE7
inactive: [12] -0.017 | [8] -0.12 | [13] 0.09

RNF13 (UniProt O43567)
inactive: erlotinib -0.161 | [1] 0.085 | [7] 0.052

RP9 (UniProt Q8TA86)
inactive: erlotinib -0.03 | [14] 0.092 | [1] -0.04 | [15] 0.041 | [16] -0.134 | [12] -0.012 | [7] 0.015 | [9] 0.079 | [10] 0.001 | [13] 0.009

RNF10 isoform 2 (UniProt Q8N5U6)
inactive: erlotinib 0.043 | [1] -0.051 | [4] -0.129 | [5] 0.231 | [12] -0.097 | [7] 0.029 | [9] -0.076 | [10] 0.095 | [13] 0.195

ROGDI (UniProt Q9GZN7)
inactive: erlotinib 0.017 | [1] 0.03 | [2] 0.158 | [3] 0.025 | IRAK-1-4 Inhibitor I -0.122 | ibrutinib 0.116 | [12] 0.308 | ralimetinib 0.142 | [6] -0.15 | [7] -0.025 | [8] 0 | [9] -0.032 | [10] -0.024 | [11] 0.074 | [13] -0.011

RLIM (UniProt Q9NVW2)
inactive: [2] -0.021 | ibrutinib 0.014 | [10] 0.465

RNF169 (UniProt Q8NCN4)
inactive: erlotinib 0.406 | [1] 0.163 | [2] -0.08 | [3] 0.089 | IRAK-1-4 Inhibitor I 0.021 | ibrutinib -0.044 | ralimetinib -0.052 | [6] -0.19 | [7] 0.103 | [9] -0.054 | [10] -0.035 | [11] -0.245
